Reference: US8735439B2, “Chlorin e6-folic acid conjugate, preparation method thereof, and a pharmaceutical composition for the treatment of cancer comprising the same” (Diatech Korea Co., Ltd., priority 2009, dated 2014)

Test system: sarcoma M-1
Test: Necrotic area in sarcoma M-1 after PDT
Assay type: in vivo, rats
Details: PDT 100 J/cm^2 at 4 hours, mean of 25 slides
Protocol: 2 hours later the animals were killed by chloroform, the tumor was excised and fixed for one hour in 10%-HOM formalin. After fixation, transverse sections of the tumor nodule in its highest diameter were made, and pictures were taken by a camera connected to a computer.
For quantitative assessment of necroses formed after PDT, computer analysis of color tints of histo-topographic tumor slides was performed using a special program.
The program included an algorithm of blue color identification (Evans blue), which stained viable areas of the tumor. Tumor areas killed from direct cytotoxic effect or due to structural-functional disorders of microcirculation were not stained in blue. The ratio of all non-stained dots to the total amount of dots in the fence of the tumor slide was considered to be the destruction efficiency.
For this purpose, a laser medical instrument “ ? 680-2000” (BIOSPEC, Moscow) was used to perform the exposure at a wavelength of 670 nm in a dose of 100 J/cm^2. The power density was 0.51 W/cm^2, the output power was 0.4 W, and the spot light diameter was 1 cm. Time of exposure was […]. Monitoring over radiating power was conducted by a universal power meter included in the laser device “ ? 4680-2000”.

[γ-(6-aminohexyl)folic acid]-chlorin e6 [chlorin e6 conjugate]
Slide area of sarcoma M-1 (2.5 mg/kg): 2.508 cm^2 | Slide area of sarcoma M-1 (5.0 mg/kg): 2,255 cm^2 | Slide area of sarcoma M-1 (10.0 mg/kg): 1.886 cm^2
